Results deposited as PubChem BioAssay AID1259308 (NCATS, 2017).

Purpose: 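Knock-downs that increase output of a recombinant reporter protein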 (primary screen)
System: human HEK293 embryonic kidney cells stably expressing firefly luciferase (HEK-CMV-Luc2-Hygro)
Knock-down reagent: single siRNA against human genes, 0.8 pmol siRNA per well
Timing: 72 h
Measured: 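Luciferase light (ONE-Glo) measured on one replicate plate set and viability (CellTiter-Glo) on the other, scaled to a negative control siRNA, with robust z-scores and luciferase per cell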
Scale: total luciferase, z-score and total luciferase, % of control: higher = more reporter protein produced; luciferase per cell, z-score: higher = more reporter output per viable cell; viable cells, % of control: higher = more viable cells
Hit rule: 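Active when the median/MAD z-score for overall luciferase is greater than 3; a gene was taken forward for validation with new siRNAs if at least two of its three siRNAs passed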
Calls: active = raised luciferase; inactive = no rise
In all, the deposit lists about 59,000 reagents; this is a part drawn at random. In the full data, about 1,510 (2.6%) were called active. 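Calls use total luciferase alone and ignore viability, so some active siRNAs may act by altering cell number.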

| target | PubChem SID | total luciferase, z-score | total luciferase, % of control | luciferase per cell, z-score | viable cells, % of control | activity call |
| --- | --- | --- | --- | --- | --- | --- |
| NAA25 | SID160734969 | 2.88 | 139 | 2.57 | 79 | inactive |
| NAA25 | SID160749969 | 0.293 | 87.7 | 0.145 | 94.3 | inactive |
| NAA25 | SID160749971 | -0.491 | 72.1 | -0.553 | 93.2 | inactive |
| NUDT9 | SID160741391 | -0.929 | 63.4 | -1.04 | 93.2 | inactive |
| NUDT9 | SID160741392 | -0.357 | 74.8 | 0.545 | 72.4 | inactive |
| NUDT9 | SID160741393 | -0.33 | 75.3 | -0.571 | 97.8 | inactive |
| STRIP1 | SID160753217 | -0.095 | 80 | -0.609 | 105 | inactive |
| STRIP1 | SID160753218 | 0.857 | 98.9 | 0.374 | 100 | inactive |
| STRIP1 | SID160753219 | 0.912 | 100 | 1.41 | 77.2 | inactive |
| PRPF38A | SID160753018 | 0.648 | 94.8 | 2.27 | 58.2 | inactive |
| PRPF38A | SID160753019 | 2.94 | 140 | 4.2 | 52 | inactive |
| PRPF38A | SID160753020 | -0.091 | 80.1 | -0.0842 | 91.5 | inactive |
| FOXB2 | SID160725471 | 0.767 | 97.1 | 0.609 | 92.5 | inactive |
| FOXB2 | SID160768178 | -1.56 | 50.8 | -0.843 | 70.9 | inactive |
| FOXB2 | SID160768179 | 0.85 | 98.8 | 2.11 | 63.4 | inactive |
| PRRG1 | SID160715090 | -1.46 | 52.8 | -0.664 | 70.2 | inactive |
| PRRG1 | SID160715091 | -0.923 | 63.5 | -0.641 | 84 | inactive |
| PRRG1 | SID160715092 | -1.21 | 57.8 | -1.23 | 89.2 | inactive |
| GRAPL | SID160733315 | -0.891 | 64.2 | -0.687 | 85.9 | inactive |
| GRAPL | SID160766995 | -0.664 | 68.7 | 0.277 | 71.4 | inactive |
| GRAPL | SID160766997 | 0.9 | 99.8 | 1.26 | 80.1 | inactive |
| NRM | SID160730331 | 0.966 | 101 | 0.161 | 108 | inactive |
| NRM | SID160730332 | 0.223 | 86.3 | 0.414 | 86.5 | inactive |
| NRM | SID160730333 | 0.126 | 84.4 | -0.14 | 97.8 | inactive |

Laid out differently: entries from further up
target,PubChem SID,"total luciferase, z-score","total luciferase, % of control","luciferase per cell, z-score","viable cells, % of control",activity call
NUDT9,SID160741392,-0.357,74.8,0.545,72.4,inactive
NUDT9,SID160741393,-0.33,75.3,-0.571,97.8,inactive
